Measurements taken from PubChem BioAssay AID206 (DTP/NCI, 2004).
The list is a part of this screen's results and no random one: it gathers tests that were run many times, whatever their T/C, doses with no T/C, and many T/C values between a quarter and a half above the control. Other doses and runs of a compound stand elsewhere. T/C: endpoint of the treated group in % of that of the vehicle group. Schedule codes are those of the source, taken here to give the interval after Q, in days (D) or hours (H), and the number of doses after X. Some doses have a count of surviving animals in place of a T/C: the source files T/C as zero there, which appears to mark a toxic dose or a test without result, not a measured value. Survivors were counted at the toxicity check, usually on the fifth day, unless a day is given; later deaths do not show. Some doses were run more than once; the results are listed from low to high.

Test system: nude mice, HT29 intrarenal xenograft, tumor weight T/C
Assay: NCI In Vivo Anticancer Drug Screen. Data for tumor model HT29;CX-1 Human Adenocarcinoma (MER+) (intrarenal inoculation) in NU/NU Swiss (nude) mice
Conditions: T/C endpoint: mean tumor weight change, higher T/C = larger tumour; for T/C: evaluated on day 15
Method in brief: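 Compounds were given to mice carrying transplantable tumors; a vehicle-dosed group served as control. The endpoint measured in each group was compared as a T/C quotient.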

[1] = dose: 1200.0 mg/kg/injection, schedule: Q04DX004 (sc), vehicle: saline with Tween-80
[2] = dose: 400.0 mg/kg/injection, schedule: Q04DX004 (sc), vehicle: saline with Tween-80

COc1ccc(CC2C(=O)NC(C)C(=O)N(C)C3Cc4ccc(cc4)Oc4cc(ccc4O)CC(C(=O)NC(C)C(=O)NC(C)C(=O)N2C)N(C)C3=O)cc1 (stereo unspecified)
survivor count (dose: 32.0 mg/kg/injection, schedule: Q04DX004 (sc), vehicle: saline with Tween-80): 3 of 6 on day 15 | survivor count (dose: 64.0 mg/kg/injection, schedule: Q04DX004 (sc), vehicle: saline with Tween-80): 0 of 6 on day 15

O=C(O)CSc1c(Cl)c(=O)oc2ccc(Cl)cc12
T/C (dose: 600.0 mg/kg/injection, schedule: Q04DX004 (sc), vehicle: Klucel (hydroxypropylcellulose) (HPC)): 141 % of control | survivor count (dose: 1200.0 mg/kg/injection, schedule: Q04DX004 (sc), vehicle: Klucel (hydroxypropylcellulose) (HPC)): 3 of 6 on day 15 | survivor count (dose: 2400.0 mg/kg/injection, schedule: Q04DX004 (sc), vehicle: Klucel (hydroxypropylcellulose) (HPC)): 0 of 5 on day 15

CC1=C(/C=C/C(C)=C/C=C/C(C)=C/C=O)C(C)(C)CCC1
survivor count [1]: 3 of 6 on day 15

CC[N](CC)[Ge]([CH2]C)[CH2]C.CC[N](CC)[Ge]([CH2]C)[CH2]C
survivor count (dose: 50.0 mg/kg/injection, schedule: Q01DX010 (sc), vehicle: suspension in saline): 0 of 2 on day 20 | survivor count (dose: 100.0 mg/kg/injection, schedule: Q01DX010 (sc), vehicle: suspension in saline): 0 of 2 on day 20

O=c1[nH]c(=O)n([C@H]2CCCO2)cc1F
survivor count (dose: 400.0 mg/kg/injection, schedule: Q01DX010 (sc), vehicle: Klucel (hydroxypropylcellulose) (HPC)): 0 of 3 on day 20 | survivor count (dose: 800.0 mg/kg/injection, schedule: Q01DX010 (sc), vehicle: Klucel (hydroxypropylcellulose) (HPC)): 0 of 3 on day 20

O=C1CN(Cc2ccc3c(c2)OCO3)NO1
survivor count (dose: 600.0 mg/kg/injection, schedule: Q04DX004 (sc), vehicle: saline with Tween-80): 3 of 6 on day 15 | survivor count [1]: 0 of 6 on day 15

OCCCN1CCCCC1CO (stereo unspecified)
survivor count (dose: 1800.0 mg/kg/injection, schedule: Q04DX004 (sc), vehicle: saline): 2 of 6 on day 15

NNC(=S)N/N=C/c1ccccn1
survivor count (dose: 120.0 mg/kg/injection, schedule: Q04DX004 (sc), vehicle: saline with Tween-80): 0 of 6 on day 15

N#CN=[N+]([O-])c1ccc(C(=O)O)cc1
survivor count (dose: 90.0 mg/kg/injection, schedule: Q04DX004 (sc), vehicle: Klucel (hydroxypropylcellulose) (HPC)): 0 of 6 on day 15 | survivor count (dose: 180.0 mg/kg/injection, schedule: Q04DX004 (sc), vehicle: Klucel (hydroxypropylcellulose) (HPC)): 0 of 6 on day 15 | survivor count (dose: 360.0 mg/kg/injection, schedule: Q04DX004 (sc), vehicle: Klucel (hydroxypropylcellulose) (HPC)): 0 of 6 on day 15

N[C@@H](Cc1ccc(N(CCCl)CCCl)cc1)C(=O)O
survivor count (dose: 1.0 mg/kg/injection, schedule: Q01DX010 (sc), vehicle: saline): 1 of 2 on day 11 | survivor count (dose: 4.0 mg/kg/injection, schedule: Q01DX010 (sc), vehicle: saline): 1 of 3 on day 11 | survivor count (dose: 8.0 mg/kg/injection, schedule: Q01DX010 (sc), vehicle: saline): 0 of 2 on day 11, 0 of 3 on day 11, 1 of 3 on day 11

NC(C/[N+]([O-])=N/O)C(=O)O (stereo unspecified)
survivor count (dose: 200.0 mg/kg/injection, schedule: Q01DX010 (sc), vehicle: saline): 0 of 3 on day 11 | survivor count (dose: 400.0 mg/kg/injection, schedule: Q01DX010 (sc), vehicle: saline): 0 of 3 on day 11

O=C(Nc1ccccc1C(=O)O)c1cc([N+](=O)[O-])cc([N+](=O)[O-])c1
survivor count [2]: 1 of 6 on day 15

OC1(CSc2ccccc2)CCCCC1
T/C (dose: 200.0 mg/kg/injection, schedule: Q04DX004 (sc), vehicle: saline with Tween-80): 126 % of control | T/C [2]: 136 % of control | T/C (dose: 800.0 mg/kg/injection, schedule: Q04DX004 (sc), vehicle: saline with Tween-80): 135 % of control
